Results are given in words; binding and its absence hold for the method and conditions named. Binding seen in cells or lysates may run through a third protein. These calls come from enrichment with a bait or labelling near it, and not all partners need be listed.
What was measured:
^FlagDNAJB8^WT (human) [1] = biological target: ^FlagDNAJB8^WT (human) (UniProt Q8NHS0); experiment: affinity purification with mass spectrometry; ^FlagDNAJB8^WT or mock (eGFP) overexpressed in HEK293T; no crosslinking; RIPA lysis, M2 anti-Flag magnetic beads overnight at 4 °C, washed with RIPA; TMT labelling, MuDPIT LC–MS; nine biological replicates
^FlagDNAJB8^H31Q (human) = ^FlagDNAJB8^H31Q (human) (UniProt Q8NHS0); experiment: affinity purification with mass spectrometry; TMT-AP-MS comparing four conditions: ^FlagDNAJB8 WT vs. H31Q, with or without 1 mM DSP crosslinking of the cells before lysis; RIPA lysis and washes, M2 anti-Flag beads; crosslinks reversed with TCEP; three biological replicates
^FlagDNAJB8^WT (human) [2] = biological target: ^FlagDNAJB8^WT (human) (UniProt Q8NHS0); experiment: as above

By UniProt entry, the sequences of proteins in these tests, tags left out. Where a name states a change or a piece, a line headed by the entry shows the natural chain unless it says otherwise. Residues count along the entry.
UniProt Q8NHS0: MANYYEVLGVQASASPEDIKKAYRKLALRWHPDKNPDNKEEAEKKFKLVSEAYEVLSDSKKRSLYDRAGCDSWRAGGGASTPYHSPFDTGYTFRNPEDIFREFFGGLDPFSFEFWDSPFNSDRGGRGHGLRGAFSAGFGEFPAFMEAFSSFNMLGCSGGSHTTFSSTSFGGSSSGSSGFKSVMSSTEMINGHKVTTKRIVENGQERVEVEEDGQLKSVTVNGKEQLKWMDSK
UniProt Q9UNE7: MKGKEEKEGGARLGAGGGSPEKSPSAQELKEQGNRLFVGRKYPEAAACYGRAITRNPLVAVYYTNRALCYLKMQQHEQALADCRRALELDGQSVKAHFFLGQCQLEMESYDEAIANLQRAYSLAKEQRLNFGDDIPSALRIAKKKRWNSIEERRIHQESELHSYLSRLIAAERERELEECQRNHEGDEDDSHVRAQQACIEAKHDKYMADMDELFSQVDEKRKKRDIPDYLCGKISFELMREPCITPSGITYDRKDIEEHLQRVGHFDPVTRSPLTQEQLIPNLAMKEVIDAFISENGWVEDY
UniProt P61604: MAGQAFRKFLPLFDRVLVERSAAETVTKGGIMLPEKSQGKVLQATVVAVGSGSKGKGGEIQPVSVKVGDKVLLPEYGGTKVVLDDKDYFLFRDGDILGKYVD
UniProt O75190: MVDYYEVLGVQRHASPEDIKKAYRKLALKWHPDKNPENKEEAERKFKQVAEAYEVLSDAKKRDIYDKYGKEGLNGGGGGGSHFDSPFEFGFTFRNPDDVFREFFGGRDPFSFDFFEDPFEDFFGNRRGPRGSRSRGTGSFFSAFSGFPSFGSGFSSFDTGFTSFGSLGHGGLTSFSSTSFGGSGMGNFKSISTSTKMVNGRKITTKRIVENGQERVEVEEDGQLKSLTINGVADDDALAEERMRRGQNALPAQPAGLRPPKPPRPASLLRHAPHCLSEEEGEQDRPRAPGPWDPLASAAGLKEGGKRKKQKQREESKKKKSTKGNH
UniProt P11021, residues 19-654: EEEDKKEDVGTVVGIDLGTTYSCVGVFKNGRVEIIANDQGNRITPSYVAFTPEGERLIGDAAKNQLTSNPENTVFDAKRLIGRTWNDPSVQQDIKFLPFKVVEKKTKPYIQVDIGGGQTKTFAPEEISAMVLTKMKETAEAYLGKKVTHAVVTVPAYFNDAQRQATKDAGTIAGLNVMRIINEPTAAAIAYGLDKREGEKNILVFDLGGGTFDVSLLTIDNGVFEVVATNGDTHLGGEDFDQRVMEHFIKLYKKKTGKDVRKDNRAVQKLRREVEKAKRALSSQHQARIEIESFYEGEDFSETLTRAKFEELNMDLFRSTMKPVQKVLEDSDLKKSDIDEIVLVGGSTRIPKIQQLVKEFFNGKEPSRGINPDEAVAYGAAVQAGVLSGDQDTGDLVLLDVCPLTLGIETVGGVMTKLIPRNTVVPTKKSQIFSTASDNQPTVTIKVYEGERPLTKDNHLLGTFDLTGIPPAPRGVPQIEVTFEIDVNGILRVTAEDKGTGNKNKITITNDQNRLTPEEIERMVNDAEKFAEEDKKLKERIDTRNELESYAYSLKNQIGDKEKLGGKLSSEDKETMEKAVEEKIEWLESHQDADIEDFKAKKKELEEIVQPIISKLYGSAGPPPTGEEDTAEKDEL
UniProt P17066: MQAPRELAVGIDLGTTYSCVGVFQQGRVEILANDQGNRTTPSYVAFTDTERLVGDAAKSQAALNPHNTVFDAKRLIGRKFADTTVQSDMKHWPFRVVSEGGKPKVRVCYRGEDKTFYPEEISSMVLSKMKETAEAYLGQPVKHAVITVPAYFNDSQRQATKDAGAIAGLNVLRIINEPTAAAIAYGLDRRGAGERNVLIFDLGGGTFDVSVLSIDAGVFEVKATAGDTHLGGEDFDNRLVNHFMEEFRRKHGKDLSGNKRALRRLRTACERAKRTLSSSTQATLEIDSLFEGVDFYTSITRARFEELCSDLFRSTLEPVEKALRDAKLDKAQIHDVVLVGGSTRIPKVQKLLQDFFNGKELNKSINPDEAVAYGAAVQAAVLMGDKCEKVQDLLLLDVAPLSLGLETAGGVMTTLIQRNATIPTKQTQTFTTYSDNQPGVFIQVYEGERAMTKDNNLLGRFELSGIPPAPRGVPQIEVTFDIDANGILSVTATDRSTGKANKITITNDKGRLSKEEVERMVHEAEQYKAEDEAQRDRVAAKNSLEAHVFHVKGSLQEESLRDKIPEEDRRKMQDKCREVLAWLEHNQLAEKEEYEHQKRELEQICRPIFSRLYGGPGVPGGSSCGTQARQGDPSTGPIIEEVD
UniProt P11142: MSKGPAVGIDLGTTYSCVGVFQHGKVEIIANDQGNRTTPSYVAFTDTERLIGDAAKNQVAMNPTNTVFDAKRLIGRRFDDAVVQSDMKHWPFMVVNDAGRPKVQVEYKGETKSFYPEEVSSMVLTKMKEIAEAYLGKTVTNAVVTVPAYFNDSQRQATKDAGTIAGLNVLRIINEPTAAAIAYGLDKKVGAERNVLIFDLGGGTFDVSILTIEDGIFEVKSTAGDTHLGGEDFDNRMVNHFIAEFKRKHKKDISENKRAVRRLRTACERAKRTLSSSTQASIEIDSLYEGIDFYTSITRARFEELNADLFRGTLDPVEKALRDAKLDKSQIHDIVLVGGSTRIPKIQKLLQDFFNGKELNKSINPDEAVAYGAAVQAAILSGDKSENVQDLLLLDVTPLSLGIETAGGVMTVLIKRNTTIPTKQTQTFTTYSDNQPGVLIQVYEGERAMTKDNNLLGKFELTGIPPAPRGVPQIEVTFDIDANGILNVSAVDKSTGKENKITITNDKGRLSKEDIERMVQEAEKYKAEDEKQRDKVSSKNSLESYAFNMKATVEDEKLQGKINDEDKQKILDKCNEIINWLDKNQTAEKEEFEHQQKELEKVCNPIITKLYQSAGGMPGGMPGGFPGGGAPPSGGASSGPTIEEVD
UniProt P34932: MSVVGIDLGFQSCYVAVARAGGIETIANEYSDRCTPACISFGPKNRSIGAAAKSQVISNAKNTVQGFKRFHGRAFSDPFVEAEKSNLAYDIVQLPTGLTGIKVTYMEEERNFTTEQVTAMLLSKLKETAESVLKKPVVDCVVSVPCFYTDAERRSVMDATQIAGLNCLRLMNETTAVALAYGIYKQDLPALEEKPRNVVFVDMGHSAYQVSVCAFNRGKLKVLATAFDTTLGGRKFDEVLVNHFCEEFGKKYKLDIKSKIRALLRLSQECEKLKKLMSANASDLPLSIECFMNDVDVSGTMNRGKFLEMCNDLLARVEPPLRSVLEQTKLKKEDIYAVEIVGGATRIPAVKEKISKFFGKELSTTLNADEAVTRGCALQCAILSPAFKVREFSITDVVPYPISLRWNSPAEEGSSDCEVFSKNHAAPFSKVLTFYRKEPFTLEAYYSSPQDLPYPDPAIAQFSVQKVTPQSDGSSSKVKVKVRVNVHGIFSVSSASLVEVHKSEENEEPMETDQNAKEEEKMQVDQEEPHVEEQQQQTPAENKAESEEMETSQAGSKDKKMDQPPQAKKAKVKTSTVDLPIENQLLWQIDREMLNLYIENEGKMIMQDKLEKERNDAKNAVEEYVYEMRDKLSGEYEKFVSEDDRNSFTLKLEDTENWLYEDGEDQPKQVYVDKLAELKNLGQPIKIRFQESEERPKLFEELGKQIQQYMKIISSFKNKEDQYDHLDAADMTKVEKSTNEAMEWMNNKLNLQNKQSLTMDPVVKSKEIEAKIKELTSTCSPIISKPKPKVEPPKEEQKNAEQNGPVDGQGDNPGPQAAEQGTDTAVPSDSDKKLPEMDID
UniProt P38646, residues 47-679: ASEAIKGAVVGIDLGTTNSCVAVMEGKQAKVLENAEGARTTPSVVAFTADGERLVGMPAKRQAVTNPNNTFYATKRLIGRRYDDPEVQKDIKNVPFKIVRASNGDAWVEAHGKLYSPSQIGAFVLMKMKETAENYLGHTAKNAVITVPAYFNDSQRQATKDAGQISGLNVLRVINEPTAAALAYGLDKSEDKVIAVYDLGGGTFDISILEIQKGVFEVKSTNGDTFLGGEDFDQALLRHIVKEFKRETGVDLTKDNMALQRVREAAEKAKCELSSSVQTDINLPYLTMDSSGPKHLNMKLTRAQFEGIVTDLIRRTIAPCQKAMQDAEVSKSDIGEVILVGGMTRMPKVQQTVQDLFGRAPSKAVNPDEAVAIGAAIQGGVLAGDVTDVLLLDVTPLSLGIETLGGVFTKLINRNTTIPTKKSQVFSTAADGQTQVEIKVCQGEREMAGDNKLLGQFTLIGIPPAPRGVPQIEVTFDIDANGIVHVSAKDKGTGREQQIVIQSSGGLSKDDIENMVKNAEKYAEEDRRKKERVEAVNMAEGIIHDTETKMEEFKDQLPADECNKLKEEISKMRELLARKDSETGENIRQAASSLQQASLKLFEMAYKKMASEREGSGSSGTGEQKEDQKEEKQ

Substance	binding (^FlagDNAJB8^WT (human) [1])	binding (^FlagDNAJB8^H31Q (human))	binding (^FlagDNAJB8^WT (human) [2])
STUB1 (from UniProt Q9UNE7 1-303)	binds		
HSPE1 (from UniProt P61604 1-102)		binds	binds
DNAJB6 (from UniProt O75190 1-326)	binds		
HSPA5 (from UniProt P11021 19-654)	binds	binds	binds
HSPA6 (from UniProt P17066 1-643)	binds		
HSPA8 (from UniProt P11142 1-646)	binds		
DNAJB1 (endogenous) (from UniProt P25685 1-340)	binds		
HSPA4 (from UniProt P34932 1-840)	binds		
HSPA9 (from UniProt P38646 47-679)	binds	binds	binds

— publication PMC11271386
